Marks after values point to notes of the source that are not given here.
Conditions: in vivo, iv, 0.3 mg/kg

## CC[C@@H](C(=O)Nc1ccc(C(N)=O)c(F)c1)n1cc(OC)c(-c2cc(Cl)ccc2-n2cc(C(F)(F)F)nn2)cc1=O (single isomer, unassigned) [Example 235]
  AUCnorm rat: 2.16* kg · h/L

Reference: patent publication US10421742B2, “Substituted oxopyridine derivatives” (priority 2015, dated 2019)
